Values from PubChem BioAssay AID1159618 (Peter MacCallum Cancer Centre, 2016)

Test: 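Retest earlier hits for effects on endothelial scratch closure in two cell types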 (follow-up of hits)
System: human HMBEC blood microvascular and HDLEC dermal lymphatic endothelial cells
Knock-down reagent: siRNA pool against human genes, 40 nM
Read-out: 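Scratch wounds imaged automatically; migrated area scaled to mock-transfected mean and averaged across two replicates, with per-well nuclei counts recorded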
Scale: migration vs mock, HMBEC and migration vs mock, HDLEC: higher = more migration into the scratch; nuclei count, HMBEC and nuclei count, HDLEC: higher = more cells
Active means: 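a knock-down counts as active if migrated area in either cell type is under 0.65 of the mock level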
Meaning of the calls: active = migration impaired; inactive = no change
The deposit covers 153 reagents; this is an unselected part. 111 of them (73%) count as active. 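Migration not corrected for cell number; some knock-downs also lowered nuclei counts, so reduced closure may partly reflect fewer cells.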 A number with no mark means an inactive call. Not stated in the record: the time to read-out.

no.	gene knocked down	cell type with impaired migration	migration vs mock, HMBEC	migration vs mock, HDLEC	nuclei count, HMBEC	nuclei count, HDLEC
1	STYK1	impaired in both blood and lymphatic cells (active)	0.357	0.389	3889	5970
2	ANGPT2	impaired in both blood and lymphatic cells (active)	0.534	0.462	3417	5269
3	GCGR	impaired in both blood and lymphatic cells (active)	0.335	0.368	2834	5071
4	KRT80	impaired only in lymphatic endothelial cells (active)	0.702	0.584	4365	5942
5	PIK3AP1	impaired in both blood and lymphatic cells (active)	0.526	0.544	3064	4494
6	ETNK2	impaired in both blood and lymphatic cells (active)	0.534	0.475	3617	5650
7	TFAP2C	impaired in both blood and lymphatic cells (active)	0.482	0.426	2844	4020
8	CASK	no change in either cell type	0.828	0.789	4361	6562
9	FLCN	impaired in both blood and lymphatic cells (active)	0.374	0.65	2805	5498
10	ACP2	impaired in both blood and lymphatic cells (active)	0.394	0.542	3008	5326
11	EFNA3	impaired only in blood endothelial cells (active)	0.649	0.823	4612	6711

Not a retest: entries from further up.
no.	gene knocked down	cell type with impaired migration	migration vs mock, HMBEC	migration vs mock, HDLEC	nuclei count, HMBEC	nuclei count, HDLEC
10	ACP2	impaired in both blood and lymphatic cells (active)	0.394	0.542	3008	5326
11	EFNA3	impaired only in blood endothelial cells (active)	0.649	0.823	4612	6711

Additional reagents follow.
no.	gene knocked down	cell type with impaired migration	migration vs mock, HMBEC	migration vs mock, HDLEC	nuclei count, HMBEC	nuclei count, HDLEC
12	GCK	no change in either cell type	0.944	0.765	5282	6985
13	CBR1	impaired only in blood endothelial cells (active)	0.307	0.696	2704	5202
14	CKM	no change in either cell type	0.738	0.713	3856	5928
15	TMIGD2	no change in either cell type	1.04	0.858	4474	5957
16	SCN1B	impaired only in lymphatic endothelial cells (active)	0.691	0.578	3186	4372
17	MOB3A	impaired in both blood and lymphatic cells (active)	0.284	0.264	3349	4565
18	BNIP1	no change in either cell type	0.672	0.933	3779	5753
19	SLC22A25	impaired in both blood and lymphatic cells (active)	0.638	0.586	3292	5418
20	LYPLA2	impaired only in lymphatic endothelial cells (active)	0.763	0.464	5882	7302
